The target of this assay is Myc-tagged GNPTAB (GlcNAc-1-phosphotransferase alpha/beta precursor) (human) (UniProt Q3T906). The assay can be described thus: co-IP.

By UniProt entry, the sequences of proteins in these tests, tags left out.
UniProt Q3T906: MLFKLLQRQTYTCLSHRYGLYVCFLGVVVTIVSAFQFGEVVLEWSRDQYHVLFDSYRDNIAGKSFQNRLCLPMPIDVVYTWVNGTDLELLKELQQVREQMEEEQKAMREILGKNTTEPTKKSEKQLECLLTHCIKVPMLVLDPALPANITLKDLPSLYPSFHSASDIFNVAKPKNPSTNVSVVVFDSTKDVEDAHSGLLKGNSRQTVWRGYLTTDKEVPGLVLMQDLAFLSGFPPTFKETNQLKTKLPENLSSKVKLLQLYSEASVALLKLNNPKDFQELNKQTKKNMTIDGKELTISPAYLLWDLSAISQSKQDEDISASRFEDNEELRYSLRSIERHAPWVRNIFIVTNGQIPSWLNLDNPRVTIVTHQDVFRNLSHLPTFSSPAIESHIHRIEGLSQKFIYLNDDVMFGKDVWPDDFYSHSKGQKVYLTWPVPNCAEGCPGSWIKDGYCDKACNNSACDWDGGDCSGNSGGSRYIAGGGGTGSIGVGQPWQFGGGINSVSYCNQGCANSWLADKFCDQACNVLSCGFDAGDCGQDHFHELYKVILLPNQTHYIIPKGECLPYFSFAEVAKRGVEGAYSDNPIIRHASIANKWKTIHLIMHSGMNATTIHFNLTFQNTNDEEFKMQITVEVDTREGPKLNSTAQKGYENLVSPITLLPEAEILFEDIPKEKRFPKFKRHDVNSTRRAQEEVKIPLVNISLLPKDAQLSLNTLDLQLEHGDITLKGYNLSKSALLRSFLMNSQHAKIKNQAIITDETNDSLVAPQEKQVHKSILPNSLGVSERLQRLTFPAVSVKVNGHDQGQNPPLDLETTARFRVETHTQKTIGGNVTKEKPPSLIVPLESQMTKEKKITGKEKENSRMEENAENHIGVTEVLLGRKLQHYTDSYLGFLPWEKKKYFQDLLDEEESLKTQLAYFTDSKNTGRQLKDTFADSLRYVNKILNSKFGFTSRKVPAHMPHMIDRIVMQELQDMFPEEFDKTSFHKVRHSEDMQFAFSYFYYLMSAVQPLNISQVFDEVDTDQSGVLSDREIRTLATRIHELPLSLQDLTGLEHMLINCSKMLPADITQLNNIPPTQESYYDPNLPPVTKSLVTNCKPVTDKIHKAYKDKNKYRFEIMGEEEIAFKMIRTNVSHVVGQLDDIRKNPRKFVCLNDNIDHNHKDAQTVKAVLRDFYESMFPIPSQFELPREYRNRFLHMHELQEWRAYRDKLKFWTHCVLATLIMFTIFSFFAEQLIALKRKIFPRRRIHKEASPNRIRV
UniProt Q9BQQ3: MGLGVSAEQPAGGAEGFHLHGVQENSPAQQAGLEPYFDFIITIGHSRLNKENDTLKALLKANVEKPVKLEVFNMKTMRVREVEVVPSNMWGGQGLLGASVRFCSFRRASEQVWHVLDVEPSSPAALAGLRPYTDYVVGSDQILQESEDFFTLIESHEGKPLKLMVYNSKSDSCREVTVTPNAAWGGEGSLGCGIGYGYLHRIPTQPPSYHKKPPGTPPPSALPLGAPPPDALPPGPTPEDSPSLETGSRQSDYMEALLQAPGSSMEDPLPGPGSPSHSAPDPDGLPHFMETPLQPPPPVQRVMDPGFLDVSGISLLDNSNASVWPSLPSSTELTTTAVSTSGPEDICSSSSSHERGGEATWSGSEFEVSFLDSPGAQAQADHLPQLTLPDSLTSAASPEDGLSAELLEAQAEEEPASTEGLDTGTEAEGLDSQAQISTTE

Results are given in words; binding and its absence hold for the method and conditions named. Binding seen in cells or lysates may run through a third protein.

With GRASP65 (from UniProt Q9BQQ3 1-440), the binding result was “no binding”.

B1: GOLGIN-45 (protein, UniProt Q9H2G9 1-400)
chain: MTTKNLETKVTVTSSPIRGAGDGMETEEPPKSVEVTSGVQSRKHHSLQSPWKKAVPSESPGVLQLGKMLTEKAMEVKAVRILVPKAAITHDIPNKNTKVKSLGHHKGEFLGQSEGVIEPNKELSEVKNVLEKLKNSERRLLQDKEGLSNQLRVQTEVNRELKKLLVASVGDDLQYHFERLAREKNQLILENEALGRNTAQLSEQLERMSIQCDVWRSKFLASRVMADELTNSRAALQRQNRDAHGAIQDLLSEREQFRQEMIATQKLLEELLVSLQWGREQTYSPSVQPHSTAELALTNHKLAKAVNSHLLGNVGINNQKKIPSTVEFCSTPAEKMAETVLRILDPVTCKESSPDNPFFESSPTTLLATKKNIGRFHPYTRYENITFNCCNHCRGELIAL
Turning to B1, the binding result was “no binding”.

B2: GM130 (protein, UniProt Q08379 1-1002)
chain: MWPQPRLPPRPAMSEETRQSKLAAAKKKLREYQQRNSPGVPTGAKKKKKIKNGSNPETTTSGGCHSPEDTPKDNAATLQPSDDTVLPGGVPSPGASLTSMAASQNHDADNVPNLMDETKTFSSTESLRQLSQQLNGLVCESATCVNGEGPASSANLKDLESRYQQLAVALDSSYVTNKQLNITIEKLKQQNQEITDQLEEEKKECHQKQGALREQLQVHIQTIGILVSEKAELQTALAHTQHAARQKEGESEDLASRLQYSRRRVGELERALSAVSTQQKKADRYNKELTKERDALRLELYKNTQSNEDLKQEKSELEEKLRVLVTEKAGMQLNLEELQKKLEMTELLLQQFSSRCEAPDANQQLQQAMEERAQLEAHLGQVMESVRQLQMERDKYAENLKGESAMWRQRMQQMSEQVHTLREEKECSMSRVQELETSLAELRNQMAEPPPPEPPAGPSEVEQQLQAEAEHLRKELEGLAGQLQAQVQDNEGLSRLNREQEERLLELERAAELWGEQAEARRQILETMQNDRTTISRALSQNRELKEQLAELQSGFVKLTNENMEITSALQSEQHVKRELGKKLGELQEKLSELKETVELKSQEAQSLQQQRDQYLGHLQQYVAAYQQLTSEKEVLHNQLLLQTQLVDQLQQQEAQGKAVAEMARQELQETQERLEAATQQNQQLRAQLSLMAHPGEGDGLDREEEEDEEEEEEEAVAVPQPMPSIPEDLESREAMVAFFNSAVASAEEEQARLRGQLKEQRVRCRRLAHLLASAQKEPEAAAPAPGTGGDSVCGETHRALQGAMEKLQSRFMELMQEKADLKERVEELEHRCIQLSGETDTIGEYIALYQSQRAVLKERHREKEEYISRLAQDKEEMKVKLLELQELVLRLVGDRNEWHGRFLAAAQNPADEPTSGAPAPQELGAANQQGDLCEVSLAGSVEPAQGEAREGSPRDNPTAQQIMQLLREMQNPRERPGLGSNPCIPFFYRADENDEVKITVI
Take B2: the binding entry is on record as “no binding”.

The values are drawn from publication doi:10.1101/2024.12.10.627846.
